Values quoted from earlier work as cited in patent publication US20250152616A1, “COMPOSITIONS FOR AND METHODS OF TREATING, PREVENTING, AND/OR MITIGATING PAIN” (Duke University, priority 2022, published 2025).

Conditions: Brink H L, et al. (2015); cited from earlier work

Nc1ncnc2c1ncn2[C@@H]1O[C@H](CO)[C@@H](O)[C@H]1O [adenosine]
half-life in the circulation: < 10 s
